Results are given in words; binding and its absence hold for the method and conditions named. In cells and extracts the contact can be indirect. Some binding calls cover weakened binding; strength is not graded here.
Target: T1, ribonucleic acid export 1 (RAE1) (human (endogenous in 293T)) (UniProt P78406)
T1 sequence: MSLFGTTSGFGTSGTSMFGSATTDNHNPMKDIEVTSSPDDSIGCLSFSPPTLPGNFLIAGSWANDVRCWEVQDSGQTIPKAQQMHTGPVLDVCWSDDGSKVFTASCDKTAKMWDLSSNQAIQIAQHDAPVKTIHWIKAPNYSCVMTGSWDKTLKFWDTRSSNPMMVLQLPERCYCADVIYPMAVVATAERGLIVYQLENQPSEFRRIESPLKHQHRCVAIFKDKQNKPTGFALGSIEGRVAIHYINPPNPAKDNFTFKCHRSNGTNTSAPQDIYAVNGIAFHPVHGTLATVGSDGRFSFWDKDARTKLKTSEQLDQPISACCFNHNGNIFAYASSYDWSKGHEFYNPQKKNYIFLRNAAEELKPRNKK
Assay: co-IP

Sequences of proteins named here, by UniProt entry; tags and fusion partners are left off. Residues count along the entry.
UniProt P0DTC6, residues 42-61: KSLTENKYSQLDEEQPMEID

## GFP fused to the 20-mer NPC targeting peptide of SARS-CoV-2 ORF6 (ORF6^42-61) (from UniProt P0DTC6 42-61) (domain or fragment)
  binding: binds

From publication PMC12548433
